For some assays here: At least one structure is not confirmed: it was looked up by name or label, or the drawing left a doubt. Some of these results come from one statement about several compounds together.
How the values were obtained:
fibrin clot = assay: stabilized fibrin clot formation; format: biochemical
[1] = tested on: Staphylococcus aureus NCTC 8325; assay: release of embedded staphylococci from human blood clots; conditions: 250 μM compound, human whole blood clot, TPA, FIG. 3

SMILES | inhibition of stabilized fibrin clot formation (fibrin clot) | increase in release of Staphylococcus aureus NCTC 8325 from the clots as compared to the control sample [1]
C[S+](C)CC(=O)CC[C@H](NC(=O)[C@@H]1CCCN1C(=O)OCc1ccccc1)C(=O)O [Compound 2, N-Benzyloxycarbonyl-L-prolinyl-6-dimethylsulfonium-5-oxo-L-norleucine] | inhibit stabilized fibrin clot formation | –
CC(=O)CSc1n(C)cc[n+]1C [Compound 3] | – | ≥ 10 fold

Reference: US20080299170A1, “Medical Devices and Coatings Therefor” (Aston University, priority 2005, published 2008)
